Results published in article PMC3640089.

Target: dynein intermediate chain (Xenopus (endogenous in Xenopus oocytes))
Assay: co-IP; Xenopus oocyte lysates (10 mM HEPES pH 7.4, 100 mM potassium acetate, 10 mM magnesium acetate, 5 mM EGTA, 0.1% NP-40, RNasin) precleared, incubated overnight with mouse anti-DIC (74.1) or mouse IgG prebound to Protein A-Sepharose; bound proteins blotted; control oocytes and oocytes expressing p150^Glued CC1

B1: Staufen (protein, UniProt Q6GM35 1-708)
chain: MSQAPKSPAAPLPKIQILNKNQHSPLPQPLSIPSTASPLPSENAGRPLQNSALPSPSVTSSGPTAVSSNMANPKEKTPMCLVNELARFNKIQPVYKLLSEQGPAHSKVIPLGRWQDYSLLERVGEERPRQMFTVQLTLGDQYWEAEGTSIKKAQHAAAAKALEGTKYPKPTVRPVRDSITPTVELNALCMKLGRKPIYKPLDPYTGIRSAYNYNMRGGGYPPRYFYPFPVAPILYQVELSVGGQQFHGKGRTRQAAKHDAAARALKSLHHEPLPDKPALNGKAADEENLNKSEISQVFEIALKRNMSVNFEVTKETGPPHMKSFLTKVIVGEFLGEGEGKSKKISKKNAAIAVLEELRKLPPLPTVEKMRPKIKKKTKSIVKLPTSPEYGQGMNPISRLAQIQQAKKGKEPEYILITERGLPRRREFVMQVKVGNHAAEGSGTNKKVAKRNAAENMLEILGFKVPPPPPKPALKTEEKLPVKKPGDGRKVTFYEPGSGEDGANHNKDDEFRMPYHSHQQLPAGILPMVPEVAQAVGVNQGLHTKEFNRVAPNPAKATVTAMIARELLYAGISPTADTILKNNNAAGHVLRGPFTRPSEQLNYLSRVQGLEVEYKDFPKNNKNEFVSLINCSSQPPLISHGIGKDVESCHDMAALNILKLLSELDQQNPEMPRTGNGPMSVCVKPEMESDPLLKPANSNTLGQTLDSTA
B1 was tested, and the binding was “binds”.

These are yes or no findings as the source states them, for the method shown. In cells and extracts the contact can be indirect. Binding calls can cover weak binding; strength is not graded here.
